Screening data

The results are deposited in PubChem (AID530; NCATS, 2006).

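Mouse JNK3 activity from prestimulated HepG2 lysate, measured as phospho-c-Jun AlphaScreen signal after two hours of kinase reaction plus three hours detection. Each compound ran as a dilution series from about 0.6 nM up to 57.1 µM. Fitted AC50 for either an inhibiting or an activating curve; a lower value means greater potency. Calls come from the fitted dose curve (inhibitor, activator, inactive or inconclusive); every row here is inconclusive, including some full curves, so the exact cut-off is unclear.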

Values are in µM. Every entry below has the call inconclusive. Only part of the assay is shown, chiefly results filed as inconclusive. Potencies fitted to partial, single-point or poorly fitting curves are rough. Some entries filed as inconclusive have a full curve. The first word of each remark tells which way the curve ran; it can be opposite to the aim of the assay.

{"compound": "N#Cc1cccc(NC(=O)N2CCC3(CC2)CCN(C(=O)c2ccco2)CC3)c1", "fitted potency (µM)": "25.12", "curve": "inhibitor, single point"}
{"compound": "O=C(O)[C@H]1C[C@H](C(=O)O)N1", "fitted potency (µM)": "0.003162", "curve": "activator, full curve, poor fit"}
{"compound": "CCCCC[C@H](CC(=O)NO)C(=O)N[C@@H](C(=O)N1CCC[C@H]1CO)C(C)C", "fitted potency (µM)": "0.1", "curve": "activator, full curve, poor fit"}
{"compound": "CC(C)c1ccc2c(c1)CC[C@@H]1[C@@](C)(CN)CCC[C@@]21C", "fitted potency (µM)": "3.981", "curve": "activator, full curve"}
{"compound": "c1cc2c3c(c1)c1c(n3CCNC2)CCCC1", "fitted potency (µM)": "39.81", "curve": "inhibitor, single point"}
{"compound": "N#C/C(=C\\c1ccc(O)c(O)c1)C(=O)Nc1ccccc1", "fitted potency (µM)": "15.85", "curve": "inhibitor, partial curve, poor fit"}
{"compound": "CCCC(C)(COC(N)=O)COC(N)=O", "fitted potency (µM)": "15.85", "curve": "activator, single point"}
{"compound": "CN1CCc2cccc3c2[C@@H]1Cc1ccc(O)c(O)c1-3", "fitted potency (µM)": "15.85", "curve": "inhibitor, partial curve"}
{"compound": "O=C(O)CNC(=O)[C@@H](CS)Cc1ccccc1", "fitted potency (µM)": "0.007943", "curve": "activator, full curve, poor fit"}
{"compound": "Cc1ccc(N=Nc2c(O)c(S(=O)(=O)O)cc3cc(S(=O)(=O)O)ccc23)c(C)c1", "fitted potency (µM)": "3.981", "curve": "inhibitor, partial curve"}
{"compound": "CCC/C=C(\\CCC)C(NC(=O)c1ccccc1)c1ccc(C(=O)OC)cc1", "stereo": "configuration not stated", "fitted potency (µM)": "31.62", "curve": "activator, partial curve"}
{"compound": "COC(=O)CC[C@@H](C)[C@H]1CC[C@H]2[C@H]3CC[C@H]4C[C@@H]5CC[C@@]4(C)C3(O5)[C@@H](Br)[C@@H](Br)[C@@]12C", "fitted potency (µM)": "0.07943", "curve": "activator, full curve"}
{"compound": "CC(C)Cc1ccc([C@H](C)C(=O)O)cc1", "fitted potency (µM)": "15.85", "curve": "activator, partial curve, poor fit"}
{"compound": "O=C(O)c1cc([N+](=O)[O-])ccc1NCCCc1ccccc1", "fitted potency (µM)": "0.005012", "curve": "inhibitor, full curve, poor fit"}
{"compound": "NCCC[C@@H](CC(=O)N[C@@H]1CCNC[C@H]1C(=O)N[C@H](CC(=O)N[C@@H](CCC(=O)O)CC(=O)O)Cc1ccccc1)NC(=O)C[C@H](CO)NC(=O)[C@@H]1CNCC[C@H]1N", "fitted potency (µM)": "12.59", "curve": "inhibitor, partial curve, poor fit"}
{"compound": "COc1ccc2[nH]cc(CCNc3cc(-c4ccccc4C)ncn3)c2c1", "fitted potency (µM)": "31.62", "curve": "inhibitor, single point"}
{"compound": "Cc1cc(Nc2ccc(O)cc2)ccc1N", "fitted potency (µM)": "31.62", "curve": "inhibitor, partial curve"}
{"compound": "COC(=O)[C@@]1(Cc2ccccc2)[C@H]2c3cc(C(=O)N4CCCC4)n(Cc4ccccn4)c3C[C@H]2CN1C(=O)c1ccccc1", "fitted potency (µM)": "12.59", "curve": "inhibitor, partial curve"}
{"compound": "O=C1c2ccccc2C(=O)c2c1ccc(C(=O)O)c2-c1ccc2ccccc2c1", "fitted potency (µM)": "3.162", "curve": "inhibitor, partial curve"}
{"compound": "CC(C)C[C@@H](CC(=O)N[C@H](CC(=O)N[C@@H]1CCCC[C@H]1C(=O)N[C@H](CC(=O)N[C@@H](CCC(=O)O)CC(=O)O)Cc1c[nH]c2ccccc12)C(C)C)NC(=O)[C@@H]1CNCC[C@H]1N", "fitted potency (µM)": "15.85", "curve": "inhibitor, partial curve, poor fit"}
{"compound": "CC(C)C[C@@H](CC(=O)N[C@H](CC(=O)N[C@@H]1CCCC[C@H]1C(=O)N[C@H](CC(=O)N[C@@H](CCC(=O)O)CC(=O)O)CC(C)C)C(C)C)NC(=O)[C@@H]1CNCC[C@H]1N", "fitted potency (µM)": "15.85", "curve": "inhibitor, single point"}
{"compound": "Oc1ccc2c3c1O[C@@H]1c4[nH]c5c(c4C[C@@]4(O)[C@@H](C2)N(CC2CC2)CC[C@]314)C[C@]1(O)[C@@H]2Cc3ccc(O)c4c3[C@@]1(CCN2CC1CC1)[C@H]5O4", "fitted potency (µM)": "0.005012", "curve": "activator, full curve, poor fit"}
{"compound": "CC(C)[C@@H](CC(=O)N[C@@H]1CCCC[C@H]1C(=O)N[C@H](CC(=O)N[C@@H](CCC(=O)O)CC(=O)O)Cc1c[nH]c2ccccc12)NC(=O)C[C@H](Cc1ccccc1)NC(=O)[C@@H]1CCCC[C@H]1N", "fitted potency (µM)": "2.512", "curve": "inhibitor, partial curve, poor fit"}
{"compound": "C[N+]1(C)CCc2cc3c(cc2[C@@H]1[C@@H]1C(=O)Oc2c1ccc1c2OCO1)OCO3", "fitted potency (µM)": "39.81", "curve": "activator, single point"}
{"compound": "O=C1c2ccccc2CC[C@H]1CNCCc1ccc(O)cc1", "fitted potency (µM)": "0.1585", "curve": "activator, full curve, poor fit"}
{"compound": "c1ccc(Nc2ccc(Nc3ccccc3)cc2)cc1", "fitted potency (µM)": "31.62", "curve": "inhibitor, partial curve"}
{"compound": "O=C1CC2(CCCC2)CC(=O)N1CCNC[C@H]1COc2ccccc2O1", "fitted potency (µM)": "0.005012", "curve": "activator, full curve, poor fit"}